This note sets out measurements from PMC7862700.

Some of the results follow. Construct or isoform of the protein are uncertain.

The assay concerns the target T1, ETV4 (UniProt P43268).
T1 sequence: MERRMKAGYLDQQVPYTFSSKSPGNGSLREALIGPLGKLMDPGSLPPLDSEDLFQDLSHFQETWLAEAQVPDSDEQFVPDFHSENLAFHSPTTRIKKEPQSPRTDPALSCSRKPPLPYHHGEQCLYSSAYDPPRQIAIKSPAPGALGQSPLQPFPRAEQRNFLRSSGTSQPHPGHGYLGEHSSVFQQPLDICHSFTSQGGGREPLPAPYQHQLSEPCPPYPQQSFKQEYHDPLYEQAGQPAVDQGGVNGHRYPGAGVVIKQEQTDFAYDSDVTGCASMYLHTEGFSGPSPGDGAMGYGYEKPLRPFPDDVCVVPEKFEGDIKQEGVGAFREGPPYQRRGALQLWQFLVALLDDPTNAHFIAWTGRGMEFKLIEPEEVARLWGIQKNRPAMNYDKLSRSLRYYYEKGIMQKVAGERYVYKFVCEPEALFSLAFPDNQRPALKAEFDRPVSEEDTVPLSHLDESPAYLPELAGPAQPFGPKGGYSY
Kind of assay: DAPPL (digital affinity profiling via proximity ligation, sequencing). To be noted: 10 mM Tris-HCl pH 7.5, 50 mM NaCl, 1 mM DTT, 4% glycerol, room temperature, 30 min; GST-TFs on glutathione beads, 16-mer random dsDNA library, 0.1% …; high values mean tight binding; double strand, one strand shown; scale: fold enrichment (6-mer frequency, TF over GST control).
GCCTAC came in with a binding signal of 1.23.

TAAATG had a binding signal of 1.31. GGATGT returned a binding signal of 1.87. The result for CATTCT reads 1.3; that for CCGACA, 1.21. GATGCA showed a binding signal of 1.16.

Consider ACACCC, for which the binding signal is 1.09. TCTTAT displayed a binding signal of 1.27. As for GTGACC, the binding signal was found to be 1.17.

With CTGCTC, the binding signal is 1.37.

As for TAGCTC, the binding signal is 1.23.

GCCCAC showed a binding signal of 1.04. With TATGGG the figure was 1.28; with ACGCTT, 1.38. Regarding CACATC, the binding signal turned out to be 1.6. The result for GCTCTT reads 1.62. The sequence ACTTGT registered a binding signal of 1.32. With TCCTAG the figure was 1.22; with GGGGCT, 1.03.

Sequence CCCCTC showed a binding signal of 1.36. On to AATGCG, for which the binding signal stood at 1.21.

In turn, TGCTGG came in with a binding signal of 1.2.

With TTCGCG, the binding signal came to 1.11. In turn, AAAGGG came in with a binding signal of 1.15. In turn, CCATCA registered a binding signal of 1.21. With TGCGTT the figure was 1.16; with TATGCA, 1.28; with GCTGCT, 1.45. The result for TTCTCT reads 1.39; that for CCACGA, 1.07; that for CAATAG, 1.06. The result for CTGGCT reads 1.3. CGAACT registered a binding signal of 1.08. CTACGG registered a binding signal of 1.38. As for ACAAAA, the binding signal is 1.16. With AAAAAC the figure was 1.17. Regarding ACAACT, the binding signal turned out to be 1.4.

In turn, TGCCAC returned a binding signal of 1.21. TACGAC registered a binding signal of 1.39. The sequence ATCTGG had a binding signal of 1.22.
